Data as given in PubChem BioAssay AID2685 (National Center for Advancing Translational Sciences (NCATS), 2010).
The other results are listed elsewhere or left out. Further columns of the screen follow, without active or inactive calls. The list favours compounds with an active or inconclusive main result. Potencies come from curve fits of mixed quality, noted in brackets.

Test: qHTS Assay for Lipid Storage Modulators in Drosophila S3 Cells;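 as to cell number change: cells counted by Cell Tracker Red CMTPX staining in the red channel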
Conditions: BODIPY lipid droplet fluorescence, 18-24 h; for cell number change: measured here: cell count max response, cells fed with added oleic acid
In short: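 Laser-scanning cytometry quantifies lipid droplet accumulation (500–530 nm total intensity; droplet/cell object ratio) in oleic acid-fed (400 uM added) Drosophila S3 cells treated with a concentration series. 20 uM Triacsin C defined 100% inhibition.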

[1] = measured here: cell number channel AC50, cells fed with added oleic acid
[2] = measured here: lipid fluorescence (Fed channel) AC50, cells fed with added oleic acid

C=CCN(CC(=O)NCc1ccccc1)C(=O)c1csnn1
cell number change: -12%
AC50 [1]: 5.17 µM [falling, single point]
AC50 [2]: 0.0058 µM [falling, full curve, poor fit]

O=C1CCC(/C=C/c2ccccc2)=NN1Cc1ccc(Cl)c(Cl)c1
cell number change: -19.7%

CC(C)(C)c1ccc(C(=O)NCCC(=O)NC2=NCCS2)cc1
cell number change: 4%
AC50 [2]: 1.16 µM [falling, full curve, poor fit]

O=C(Nc1nc2ccc(Cl)cc2s1)[C@@H]1CCCN1C(=O)c1cccs1
cell number change: 10.9%

Cc1cc(-c2nnc(SCC(=O)N3C(C)CCCC3C)o2)no1 (centres undefined)
cell number change: 58.8%
AC50 [1]: 29.1 µM [rising, single point]
AC50 [2]: 29.1 µM [rising, single point]

CCOc1ccc(NC(=O)CN2CCN(S(=O)(=O)c3ccc(Cl)cc3)CC2)cc1
cell number change: 25.3%
AC50 [2]: 29.1 µM [rising, single point]

Cc1cc(C)cc(OCC(=O)OCC(=O)NCc2ccco2)c1
AC50 [2]: 6.51 µM [falling, single point]

Cc1cc(CN(C)C(=O)CCc2nnc(Cc3cccc(C(F)(F)F)c3)o2)on1
cell number change: -8.32%

O=C(Nc1ccncc1)c1cc(S(=O)(=O)N2CCN(c3ccccc3)CC2)ccc1Cl
AC50 [2]: 25.9 µM [falling, single point]

N#CC1=C(N)OC2=C(C(=O)CCC2)C1c1ccncc1 (centres undefined)
cell number change: -11.6%
AC50 [2]: 32.6 µM [rising, partial curve, poor fit]

NS(=O)(=O)c1ccc(NC(=O)c2ccc3c(c2)OCO3)cc1
cell number change: 30.1%

COCCNC(=O)c1ccc(-n2c(SCc3cccnc3)nc3ccccc3c2=O)cc1
cell number change: 94.7%

O=C(Nc1cccc2c1CCCC2)c1ccccc1F
cell number change: 5.25%
AC50 [2]: 29.1 µM [rising, single point]

CCS(=O)(=O)N1N=C(c2cccs2)CC1c1cc2cc(C)ccc2nc1Cl (centres undefined)
cell number change: 50.5%
AC50 [1]: 14.6 µM [rising, partial curve]

CC1CCCN(C(=O)/C(=C/c2ccco2)NC(=O)c2ccccc2)C1 (centres undefined)
cell number change: 8.57%
AC50 [2]: 0.206 µM [rising, single point]

CCN1/C(=C/c2cc[n+](C)cc2)C=Cc2cc(C)ccc21
cell number change: -10.2%

Cc1occc1C(=O)N1CCN(C(c2ccccc2)c2ccccc2)CC1
cell number change: -126%
AC50 [1]: 29.1 µM [falling, single point]
AC50 [2]: 29.1 µM [falling, single point]

O=C(NCc1ccc(F)cc1)c1cnc2n(c1=O)CCS2
cell number change: 34.7%
AC50 [1]: 7.31 µM [rising, partial curve]
AC50 [2]: 7.31 µM [rising, partial curve]

CN(C)S(=O)(=O)n1cc(/C=C(\NC(=O)c2ccccc2)C(=O)N2CCOCC2)c2ccccc21
cell number change: 80.7%
AC50 [1]: 29.1 µM [rising, single point]

COc1ccc(S(=O)(=O)N2CCN(CC(O)COc3ccc(C#N)cc3)CC2)cc1OC (centres undefined)
cell number change: 15.4%

CCCC(C)NC(=O)CN(c1ccc2c(c1)OCCO2)S(=O)(=O)c1ccccc1 (centres undefined)
cell number change: -22.1%
AC50 [2]: 29.1 µM [rising, single point]

COc1cccc(Sc2ccccc2/C=N/NC(N)=O)c1
AC50 [1]: 1.64 µM [rising, partial curve, poor fit]
AC50 [2]: 0.651 µM [rising, single point]

Cc1ccc(NNC(=O)c2cccs2)cc1Cl
AC50 [2]: 1.84 µM [rising, partial curve]

CCOc1ccc(CC(=O)Nc2c(C(=O)Nc3ccccc3)oc3ccccc23)cc1OCC
cell number change: -43.4%
AC50 [1]: 29.1 µM [falling, single point]
AC50 [2]: 29.1 µM [falling, single point]

O=C(OCN1C(=O)c2ccccc2C1=O)c1cccc(S(=O)(=O)N2CCOCC2)c1
cell number change: 1.62%
AC50 [2]: 0.651 µM [rising, full curve]

Cc1ccc(C2=NN(C(=O)CNCCO)C(c3cccs3)C2)cc1 (centres undefined)
cell number change: -1.65%
AC50 [2]: 29.1 µM [rising, single point]

O=C(NCCCn1ccnc1)c1ccc(N2CCCCCC2)c([N+](=O)[O-])c1
cell number change: 49.1%
AC50 [1]: 9.2 µM [rising, partial curve, poor fit]
AC50 [2]: 0.116 µM [rising, full curve, poor fit]

O=C(Nc1ccccc1)C1=C[C@H](c2ccccc2)C[C@H](OCc2ccc(CO)cc2)O1
cell number change: 13.5%
AC50 [2]: 2.06 µM [rising, partial curve, poor fit]

c1ccc(Cc2noc(CN3CCN(Cc4ccc5c(c4)OCO5)CC3)n2)cc1
cell number change: 8.51%
AC50 [2]: 20.6 µM [rising, partial curve, poor fit]

CCOc1ccc(S(=O)(=O)/N=C(\N)c2ccccc2)cc1
cell number change: 3.63%
AC50 [2]: 0.411 µM [rising, full curve, poor fit]

COc1ccc(C2CC(=O)C3=C(C2)Nc2ccccc2N(C(=O)C2CC2)C3c2cccnc2)cc1OC (centres undefined)
cell number change: 40.4%
AC50 [1]: 2.59 µM [rising, full curve, poor fit]
AC50 [2]: 23.1 µM [rising, partial curve]

COc1ccc(Cn2ccnc2)cc1[N+](=O)[O-]
cell number change: -34.9%
AC50 [1]: 32.6 µM [falling, single point]
AC50 [2]: 6.51 µM [falling, single point]

CC(C)/C=C/C(=O)N1CCCC(N2CCN(c3ccccc3F)CC2)C1 (centres undefined)
cell number change: 1.72%
AC50 [2]: 0.326 µM [rising, partial curve, poor fit]

CC(c1ccccc1)n1c(Br)nc2c1c(=O)[nH]c(=O)n2C (centres undefined)
cell number change: 20.1%

O=C(CNC(=O)c1sc2ccccc2c1Cl)NCc1ccccc1
cell number change: -18.4%
AC50 [2]: 5.8 µM [falling, full curve]

Cc1ccc(S(=O)(=O)NCCCCCC(=O)NCCc2ccccc2)cc1
cell number change: -5.5%

CCCC(C)NCC(=O)Nc1ccccc1-c1ccccc1 (centres undefined)
cell number change: 33%
AC50 [1]: 16.4 µM [rising, single point]
AC50 [2]: 6.51 µM [rising, single point]

C=CCSc1nccc(=O)[nH]1
cell number change: 4.94%
AC50 [2]: 25.9 µM [rising, single point]

Cc1oc2cc3c(C(=O)N4CCCCC4)c(C)oc3cc2c1C(=O)N1CCCCC1
cell number change: 47.7%
AC50 [1]: 1.64 µM [rising, full curve, poor fit]
AC50 [2]: 0.00461 µM [rising, full curve, poor fit]

C=CCNC(=O)[C@@H]1CSC2c3ccc(OC)c(OC)c3C(=O)N21 (some centres undefined)
cell number change: 28.5%
AC50 [2]: 32.6 µM [rising, partial curve, poor fit]

Cc1c(CC(=O)N2CCN(C(=O)C3COc4ccccc4O3)CC2)c(=O)oc2cc(O)c(Cl)cc12 (centres undefined)
cell number change: -26.3%
AC50 [2]: 29.1 µM [falling, single point]

CCN(CC)C(=S)SCC(=O)Nc1nc(-c2ccccc2)c(-c2ccccc2)o1
cell number change: -4.06%

CNCCOc1nc(N2CCOCC2)nc(C)c1[N+](=O)[O-]
cell number change: 4.89%

CCOc1ccc(CCNC(=O)c2sc3nc4n(c(=O)c3c2C)CCC4)cc1OCC
cell number change: -20.8%
AC50 [2]: 16.4 µM [falling, single point]

CC(C)(C)NC(=O)CN(C(=O)CSc1nnc(COc2ccccc2)o1)c1cccc(F)c1
cell number change: -6.03%

COc1ccc2c(CC(=O)OCC(=O)Nc3ccc(C)cc3)coc2c1
cell number change: 0.367%
AC50 [2]: 29.1 µM [rising, single point]

CCc1c(C)c2c(C)nn(-c3ccccc3)c2[nH]c1=O
AC50 [1]: 6.51 µM [falling, single point]

N#CC12CCCCC1CC1CCCCC1(C#N)N2CCO (centres undefined)
cell number change: -1.1%
AC50 [2]: 0.00461 µM [rising, full curve, poor fit]

O=[N+]([O-])c1ccc(NCc2ccccn2)nc1
cell number change: 30.2%
AC50 [1]: 25.9 µM [rising, single point]
AC50 [2]: 18.4 µM [rising, single point]

COc1ccc(CNC(=O)c2ccc(S(=O)(=O)N3CCOCC3)cc2)cc1
cell number change: -23.4%
AC50 [2]: 0.259 µM [falling, partial curve, poor fit]

Cc1ccccc1OCc1nnc(SC(C)C(=O)O)n1Cc1ccccc1 (centres undefined)
cell number change: 10.9%

CCC(CC)c1nnc(NC(=O)c2c(C)nn(Cc3ccccc3Cl)c2C)s1
cell number change: -31.1%
AC50 [1]: 4.11 µM [falling, full curve, poor fit]
AC50 [2]: 29.1 µM [falling, single point]

COC(=O)[C@@H]1OC(=O)[C@H]2O[C@@]23[C@@]1(C)CC[C@@H]1[C@@]2(C)C=CC(=O)OC(C)(C)[C@@H]2CC(=O)[C@]13C
cell number change: 3.61%
AC50 [2]: 4.11 µM [rising, full curve, poor fit]

Cc1cccc(OCCCn2c(=O)oc3ccccc32)c1
cell number change: 111%
AC50 [1]: 23.1 µM [rising, single point]
AC50 [2]: 23.1 µM [rising, partial curve]

CCOC(=O)c1c(C)[nH]c(C(=O)OCC(=O)c2ccc(OC)cc2OC)c1C
cell number change: -6.04%

CCOC(=O)N1CCC(NC(=O)c2cc3c(-c4cccc(OC)c4)nn(C)c3s2)CC1
cell number change: -57.1%
AC50 [1]: 29.1 µM [falling, single point]

CCn1cc(CN2CCN(Cc3ccsc3)C(CCO)C2)cn1 (centres undefined)
cell number change: 13.3%

CC(C)(C)c1ccc(C(=O)NCCOc2ccccc2)cc1
cell number change: -24.9%
AC50 [1]: 4.11 µM [falling, full curve, poor fit]

COc1ccccc1NS(=O)(=O)c1c(C)nc2sccn2c1=O
cell number change: 7.49%
AC50 [2]: 29.1 µM [rising, single point]

CCOC(=O)C1CCCN(C(=O)Cc2c(C(=O)O)[nH]c3ccccc23)C1 (centres undefined)
cell number change: 9.64%
AC50 [2]: 0.092 µM [falling, full curve, poor fit]
